The series relates to T1, Hahb-4 (nuclear extract proteins, induced by ABA or water stress) (Helianthus annuus).
T1 sequence: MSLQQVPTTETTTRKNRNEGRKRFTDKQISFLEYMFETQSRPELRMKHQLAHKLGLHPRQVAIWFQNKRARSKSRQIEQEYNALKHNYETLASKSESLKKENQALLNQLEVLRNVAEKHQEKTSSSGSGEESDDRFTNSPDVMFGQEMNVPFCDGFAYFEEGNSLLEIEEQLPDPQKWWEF
The series is described as follows: EMSA. Particulars: nuclear extracts (30 ug) from control, ABA-treated and water-stressed seedlings; ABA and water stress induce specific binding, shifted bands A and B; protein in an extract; label: 32P (Klenow fill-in of 3' ends). Background: A gel shift assay detects complexes by their altered migration in electrophoresis.

Construct, isoform or probe ends are uncertain for at least one entry. Where cells or extracts were used, other partners may take part. Tags and fusion partners may be left off the protein sequences shown.

As to “AATTCAGATCTCAATAATTGAGAG / GATCCTCTCAATTATTGAGATCTG [Hahb-4 target site oligonucleotide]”, the binding result is “binds”.

Source of the values: patent US20070180584.
